Two compounds from publication PMC9894685, “Abscisic acid agonists suitable for optimizing plant water use” (Frontiers in Plant Science, 2023) can be followed below.

This data set relates to RCAR11-HAB1. The data set is described as follows: In vitro phosphatase assay, HAB1 with RCAR11. Format: biochemical, Arabidopsis thaliana. As to conditions: Fig. 3D.

With `CC(=C/C(=O)O)/C=C/C(O)(C(C)C)C1(C#N)CC1` (stereo not drawn) [CCP1, (2Z,4E)-6-(1-cyanocyclopropyl)-3-methyl-6-hydroxy-7-methylocta-2,4-dienoic acid], the “Statistical significance of RCAR11-mediated inhibition of HAB1 phosphatase activity vs ABA” value runs as follows: (0.003 µM) “ns (Otherwise, the difference is regarded as insignificant indicated as “ns”)”; (0.01 µM) “ns (Otherwise, the difference is regarded as insignificant indicated as “ns”)”; (0.03 µM) “ns (Otherwise, the difference is regarded as insignificant indicated as “ns”)”; (0.1 µM) “ns (Otherwise, the difference is regarded as insignificant indicated as “ns”)”; (0.3 µM) “ns (Otherwise, the difference is regarded as insignificant indicated as “ns”)”; (1 µM) “ns (Otherwise, the difference is regarded as insignificant indicated as “ns”)”. For the same compound, the “Statistical significance of RCAR11-mediated inhibition of HAB1 phosphatase activity vs ABA” value runs as follows: (3 µM) “ns (Otherwise, the difference is regarded as insignificant indicated as “ns”)”; (10 µM) “ns (Otherwise, the difference is regarded as insignificant indicated as “ns”)”; (30 µM) “ns (Otherwise, the difference is regarded as insignificant indicated as “ns”)”; (100 µM) “ns (Otherwise, the difference is regarded as insignificant indicated as “ns”)”.

For `CCC(=C/C(=O)O)/C=C/C(O)(C(C)C)C1(C#N)CC1` (stereo not drawn) [CCP2], the “Statistical significance of RCAR11-mediated inhibition of HAB1 phosphatase activity vs ABA” value is “ns (Otherwise, the difference is regarded as insignificant indicated as “ns”)” (0.003 µM); “ns (Otherwise, the difference is regarded as insignificant indicated as “ns”)” (0.01 µM); “ns (Otherwise, the difference is regarded as insignificant indicated as “ns”)” (0.03 µM); “ns (Otherwise, the difference is regarded as insignificant indicated as “ns”)” (0.1 µM); “s (P < 0.05 (one-way ANOVA) is considered as a significant difference and expressed as “s”)” (0.3 µM); “ns (Otherwise, the difference is regarded as insignificant indicated as “ns”)” (1 µM). Moreover, the “Statistical significance of RCAR11-mediated inhibition of HAB1 phosphatase activity vs ABA” value is “ns (Otherwise, the difference is regarded as insignificant indicated as “ns”)” (3 µM); “ns (Otherwise, the difference is regarded as insignificant indicated as “ns”)” (10 µM); “ns (Otherwise, the difference is regarded as insignificant indicated as “ns”)” (30 µM); “ns (Otherwise, the difference is regarded as insignificant indicated as “ns”)” (100 µM). The “Statistical significance of RCAR11-mediated inhibition of HAB1 phosphatase activity vs CCP1” value was “ns (Otherwise, the difference is regarded as insignificant indicated as “ns”)” (0.003 µM); “ns (Otherwise, the difference is regarded as insignificant indicated as “ns”)” (0.01 µM); “ns (Otherwise, the difference is regarded as insignificant indicated as “ns”)” (0.03 µM); “s (P < 0.05 (one-way ANOVA) is considered as a significant difference and expressed as “s”)” (0.1 µM); “s (P < 0.05 (one-way ANOVA) is considered as a significant difference and expressed as “s”)” (0.3 µM); “ns (Otherwise, the difference is regarded as insignificant indicated as “ns”)” (1 µM). For the same compound, the “Statistical significance of RCAR11-mediated inhibition of HAB1 phosphatase activity vs CCP1” value is, setting by setting: (3 µM) “ns (Otherwise, the difference is regarded as insignificant indicated as “ns”)”; (10 µM) “ns (Otherwise, the difference is regarded as insignificant indicated as “ns”)”; (30 µM) “ns (Otherwise, the difference is regarded as insignificant indicated as “ns”)”; (100 µM) “ns (Otherwise, the difference is regarded as insignificant indicated as “ns”)”.
